# Reference: the supplement of paper PMC12067093, “Discovery and optimisation of a covalent ligand for TRIM25 and its application to targeted protein ubiquitination” (Chemical Science, 2025)
# This is one part of the list.
# Compound: Cc1cc(ccc1-c1ccccc1)C(=O)N1CCCN(CC1)C(=O)CCl [compound 10]
# Assay: probe-labelled cysteine peptide fold change vs DMSO (competition) (log2 fold change); higher = less target engagement (more negative = stronger competition)
# Conditions: THP-1, incubation time: 4 h
# 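Also: competitive profiling in live THP-1 cells: cysteine peptides tagged with an iodoacetamide desthiobiotin (IA-DTB) probe, intensity after compound treatment relative to DMSO-treated cells.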
Target,probe-labelled cysteine peptide fold change (10 µM),probe-labelled cysteine peptide fold change (50 µM)
COG4_Q9H9E3_554_MSFLVTLNNVEVCSENISTLK (UniProt Q9H9E3),-0.076,-0.0319
COMMD4_Q9H0A8_34_LLCSQVLK (UniProt Q9H0A8),0.0575,0.219
CNN2_Q99439_175_CASQSGMTAYGTR (UniProt Q99439),0.188,-0.502
COPG2_Q9UBF2_387_VVVVQAISALCQK (UniProt Q9UBF2),0.201,0.374
COPG1_Q9Y678_440_ETGLSHLCEFIEDCEFTVLATR (UniProt Q9Y678),0.0873,0.125
COG4_Q9H9E3_240_FSEYLCK (UniProt Q9H9E3),0.0437,0.169
COL18A1_P39060_1604_GADFQCFQQAR (UniProt P39060),-0.199,-0.187
CNPY3_Q9BT09_206_DTSCLAEQWSGK (UniProt Q9BT09),-0.165,0.203
COPG1_Q9Y678_97_EMSCIAEDVIIVTSSLTK (UniProt Q9Y678),0.11,0.136
COPB1_P53618_623_VLSECSPLMNDIFNK (UniProt P53618),0.126,-0.049
COG1_Q8WTW3_72_CAVGLVDAVK (UniProt Q8WTW3),0.121,-0.197
CMPK2_Q5EBM0_40_RFVLELPDCTLAHFALGADAPGDADAPDPR (UniProt Q5EBM0),-0.175,-0.0666
COPG2_Q9UBF2_88_MCYLTIK (UniProt Q9UBF2),0.0809,-0.0402
COPE_O14579_212_CSPTLLLLNGQAACHMAQGR (UniProt O14579),0.0619,0.054

# 3 entries from above, with bars between the fields:
Target | probe-labelled cysteine peptide fold change (10 µM) | probe-labelled cysteine peptide fold change (50 µM)
COPG1_Q9Y678_440_ETGLSHLCEFIEDCEFTVLATR (UniProt Q9Y678) | 0.0873 | 0.125
CNPY3_Q9BT09_206_DTSCLAEQWSGK (UniProt Q9BT09) | -0.165 | 0.203
COPG2_Q9UBF2_88_MCYLTIK (UniProt Q9UBF2) | 0.0809 | -0.0402
